In this assay the test system is Salmonella enterica serovar Typhimurium SL1344. Kind of assay: bacterial growth OD600 after 18 h with compound and polymyxin B; higher = more bacterial growth (less inhibition). The following applies: 50 µM, Mueller-Hinton broth.

The list shows a part of the results. These are raw signals, not scaled to a control.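 First-pass screen: polymyxin B was added at a level that permeabilizes the Salmonella outer membrane while sparing the inner membrane. DMSO wells, with and without polymyxin B, defined maximum growth. Because plates differed from one another, each plate's data were ranked separately and the compounds with the lowest OD600 were carried forward as hits.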

Consider 21 compounds from the supplement of paper PMC12889115.

As for `Cc1ccc(OCCN(C)C(=O)C2CCC(=O)N(Cc3ccccn3)C2)cc1` (stereo unspecified), the “bacterial growth OD600” value (polymyxin B 1 µg/mL) is 0.893.
On to `Cc1nc2sccn2c1CN1CCC2(CC1)CC2C(=O)NCCC(c1ccccc1)c1ccccc1` (stereo unspecified), for which the “bacterial growth OD600” value (polymyxin B 0.75 µg/mL) came to 0.902.
Take `Cc1c(C(=O)N(C)CC(C)C)cnn1-c1ncc2c(n1)-c1ccccc1CC2`: the “bacterial growth OD600” value (polymyxin B 0.75 µg/mL) worked out at 0.656.
With `Cc1nc(N(C)C2CCCCC2)ncc1C(C)NC(=O)CN1CCCC1=O` (stereo unspecified), the “bacterial growth OD600” value (polymyxin B 0.75 µg/mL) was 0.827.
Turning to `COc1ccc(OCc2cc(C(=O)N3CCOCC3)n[nH]2)c(Cl)c1`, the “bacterial growth OD600” value (polymyxin B 1 µg/mL) was 0.88.
Consider `COCc1noc(-c2ccc(N3CCCCC3CCCO)nc2)n1` (stereo unspecified), for which, under “polymyxin B 0.75 µg/mL”, the “bacterial growth OD600” value came out at 0.843.
The same measure, in the same setting: under `CCNC(=O)c1cn(C(C)CC)cc(C(=O)NCc2ccc(F)c(F)c2)c1=O` (stereo unspecified) stands 0.19; under `c1ccc(CCCNc2ccc(-c3nc(C4CC4)no3)cn2)nc1`, 0.773.
On to `COCc1noc(-c2ccc(N(C)CC3CCCO3)nc2)n1` (stereo unspecified), for which the “bacterial growth OD600” value (polymyxin B 1 µg/mL) amounted to 0.935.
Still for that read-out and setting: under `Cc1ccc(NC2CCCN(C(=O)Cc3nonc3C)C2)cc1C` (stereo unspecified) stands 0.778.
For the compound `Cc1c(CC(=O)NCCc2ccco2)c2c(n1CC1CCCO1)CCCC2=O` (stereo unspecified), where the note is “polymyxin B 0.75 µg/mL”, the “bacterial growth OD600” value was found to be 1.03.
Take `COCCO[C@H]1[C@H](NC(=O)C(C)C)c2ccccc2C12CCN(C(=O)Cc1cccc(OC)c1)CC2`: the “bacterial growth OD600” value (polymyxin B 0.75 µg/mL) came to 0.851.
As for `C=C(C)CN(CC)C(=O)C1CCC(=O)N(CCc2ccc(OC)cc2)C1` (stereo unspecified), the “bacterial growth OD600” value (polymyxin B 1 µg/mL) was 0.931.
As for `CCn1cc(CNC(=O)C2CCC(=O)N(CCCc3ccccc3)C2)cn1` (stereo unspecified), the “bacterial growth OD600” value (polymyxin B 1 µg/mL) worked out at 0.775.
As for `COCC(=O)N1CCc2[nH]nc(-c3ccc4c(c3)OCO4)c2C1`, the “bacterial growth OD600” value (polymyxin B 0.75 µg/mL) was 0.868.
Consider `Cc1nc2sccn2c1C(=O)NC1CCCN(CCc2ccccc2)C1` (stereo unspecified), for which the “bacterial growth OD600” value (polymyxin B 1 µg/mL) is 0.909.
The same measure, in the same setting: under `O=C(C1CCN(c2nc3nonc3nc2NC2CCCC2)CC1)N1CCCC1` stands 0.892.
On to `C=CCC(=O)N1CCCC1C(=O)Nc1ccc(-c2nc3ccccc3o2)cc1` (stereo unspecified), for which the “bacterial growth OD600” value (polymyxin B 0.75 µg/mL) was 0.881.
The same measure, in the same setting: under `O=C1CCC(CCC(=O)N2CCOc3ccccc3C2)(Cc2ccc3ccccc3c2)N1` (stereo unspecified) stands 0.864.
Regarding `COc1ccc(CC2(CCC(=O)N[C@@H](Cc3ccccc3)C(N)=O)CCC(=O)N2)c(F)c1` (stereo partly specified), the “bacterial growth OD600” value (polymyxin B 0.75 µg/mL) is 0.86.
Turning to `CC1(C(=O)NC2CC(=O)N(CCc3ccccc3)C2)CC1` (stereo unspecified), for the setting “polymyxin B 1 µg/mL”, the “bacterial growth OD600” value was found to be 1.09.
